# PubChem BioAssay AID493014 (National Center for Advancing Translational Sciences (NCATS), 2011)
# The other results are listed elsewhere or left out. The main result of the screen is listed elsewhere. These columns were measured beside it and carry no call. Compounds called inactive in the main read-out are mostly missing here. Potencies come from curve fits of mixed quality, noted in brackets.
# Assay: qHTS Assay to Find Inhibitors of Chronic Active B-Cell Receptor Signaling
# Details: ABC-DLBCL IkBa-CBG/CBR reporter, luminescence ratio (green luciferase fused to IkBa over red control in TMD8 lymphoma cells), 4 h
# Procedure, shortened: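 Doxycycline induced both beetle luciferases in TMD8 lymphoma cells; IKK-driven degradation limits the IkappaBalpha-fused green signal, while red luminescence normalises for cell number and nonspecific effects. Compounds tested up to 46 uM, 4 hrs.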
# [1] = measured here: CBR red luminescence, cell number
# [2] = measured here: IkBa-CBG green luminescence
Compound,AC50 [1],AC50 [2]
COCCn1c(SC(C)C(=O)NC2CC2)nnc1-c1cccc(C)c1 (stereo not given),"6.51 µM [rising, full curve, poor fit]",
Cc1ccc(C(=O)NNC(=O)Cc2csc(-c3csc(C)n3)n2)cc1,"0.1 µM [rising, full curve, poor fit]",
CCc1ccc(Cn2nnc(C(=O)Nc3cccc(C)c3)c2N)cc1,"29.1 µM [rising, partial curve, poor fit]",
Cc1c(OCC(=O)NCc2ccncc2)ccc2c3c(c(=O)oc12)CCCC3,"0.562 µM [rising, full curve, poor fit]",
Cc1nc(C(=O)N2CCCC(C(=O)c3cccc(OC(C)C)c3)C2)cs1 (stereo not given),"2.51 µM [rising, partial curve, poor fit]",
CC(Nc1nc(-c2cccnc2)nc2ccccc12)c1ccc(F)cc1 (stereo not given),"10 µM [rising, partial curve, poor fit]",
Cc1cc(C)c2cccc(NC(=S)NC(=O)c3ccccc3)c2n1,"0.112 µM [falling, full curve, poor fit]",
O=C(NCC1CCCO1)c1cc2cc(Cl)ccc2[nH]1 (stereo not given),"0.794 µM [rising, full curve]",
COc1cccc(NC(=O)CCN2CCN(C)CC2)c1,"1.03 µM [rising, full curve]",
Cc1ccc(N2C(=O)C(Cl)=C(NCc3ccccc3)C2=O)c(C)c1,"6.31 µM [rising, single point]",
C/C(=N\Nc1nc2ccccc2[nH]1)c1ccc2c(c1)OCCO2,"8.91 µM [falling, partial curve, poor fit]",
CC(C)(CO)NS(=O)(=O)c1ccc2c(c1)Cc1cc(S(=O)(=O)NC(C)(C)CO)ccc1-2,"31.6 µM [rising, single point]",
COC(=O)c1ccc2nc(NC(=O)C3CC3)sc2c1,"35.5 µM [falling, partial curve, poor fit]",
CN=C1c2cc3c(Br)c(OC)ccc3n2CCN1C,"20.6 µM [rising, single point]",
Cc1cc(=O)[nH]c(SCC(=O)NCC2CCCCC2)c1C#N,"11.2 µM [rising, single point]",
CC(C)=CCC/C(C)=C/CNC(=O)C[C@H]1C[C@H](C(=O)N(C(C)C)C(C)C)[C@@]2(C)c3[nH]c4cc(CCC(=O)N(C)C)ccc4c3CCN2C1=O,"32.6 µM [falling, single point]",
COc1cccc2c1O/C(=N\O)C(C(=O)Nc1ccc(C)cc1)C2 (stereo not given),"14.1 µM [falling, partial curve]",
CC(=O)Nc1ccc(NC(=O)c2cc(-c3ccc(C)cc3O)n[nH]2)cc1,"15.8 µM [falling, partial curve, poor fit]",
COc1ccc(N2CCN(c3ccc(C(=O)O)cc3[N+](=O)[O-])CC2)cc1,"11.2 µM [falling, partial curve]",
COc1ccc(C(CNC(=O)C(C)Oc2ccc(Br)cc2)N2CCCCC2)cc1 (stereo not given),,"32.6 µM [falling, partial curve, poor fit]"
Nc1ncnc2c1ncn2[C@@H]1O[C@H](CNCc2ccc(-c3cc(C(F)(F)F)ccc3Cl)o2)[C@@H](O)[C@H]1O,,"8.2 µM [falling, partial curve]"

Compound,AC50 [1],AC50 [2]
CC(C)C(NCc1c(Cl)cccc1Cl)C(=O)O (stereo not given),"3.55 µM [falling, single point]",
O=C(NC(=S)N1CCCC1)c1ccccc1F,"6.51 µM [rising, single point]",
O=C(NCC(=O)N1CCC(Cc2ccccc2)CC1)c1ccc(Cl)cc1,"35.5 µM [falling, single point]",
N#C/C(=N\Nc1ccccc1)C(N)=S,"25.1 µM [falling, single point]",
COc1ccc(C2CC(c3cccs3)=Nc3ccccc3S2)cc1OC (stereo not given),"0.184 µM [rising, full curve]",
Cc1ccc(CC(=O)Nc2ncc([N+](=O)[O-])s2)cc1,"11.2 µM [falling, partial curve]",
O=C(N/N=C/c1ccc(-c2ccc(S(=O)(=O)Nc3ncccn3)cc2)o1)c1cc2ccccc2cc1O,"8.2 µM [falling, partial curve, poor fit]",
O=C(Nc1ccc2oc(-c3ccc4ccccc4c3)nc2c1)c1cccs1,"0.651 µM [rising, full curve, poor fit]",
CCS(=O)(=O)c1ncc(Cl)c(C(=O)Nc2ccc(S(=O)(=O)N(C)c3ccccc3)cc2)n1,"6.31 µM [falling, full curve]",
O=C(COc1ccc(Cl)cc1)N1CCCCC1,"6.51 µM [rising, single point]",
CCOCc1nnc(NC(=O)CCc2ccccc2)s1,"1.84 µM [rising, full curve, poor fit]",
CC(=O)N1CCN(CCS(=O)(=O)c2cc(Cl)ccc2Cl)CC1,"18.4 µM [falling, partial curve, poor fit]",
CC(C)NCCCOc1ccc(Cl)cc1Br,"10 µM [falling, partial curve]",
CCOC(=O)c1c(-c2cccs2)csc1NC(C)=O,"11.6 µM [rising, partial curve]",
O=C(Cn1cc(SCc2ccccc2Cl)c2ccccc21)N1CCOCC1,"29.1 µM [falling, single point]",
C/C(CC(=O)Nc1cccnc1)=N\NC(=O)C(C)Oc1ccc(Cl)cc1Cl (stereo not given),"14.1 µM [falling, partial curve, poor fit]",
Cn1nc(C(C)(C)C)c(NC(=O)c2ccc(F)cc2)c1C(C)(C)C,"35.5 µM [rising, single point]",
COc1ccccc1NC(=O)/C=C/c1ccc2c(c1)OCO2,"10 µM [falling, partial curve]",
CC(=O)Nc1ccc(S(=O)(=O)N2CCN(C(=O)N3CCOCC3)CC2)cc1,"0.731 µM [falling, partial curve, poor fit]",
CCOC(=O)Cc1csc(NC(=O)CSc2nc3cccnc3n2CC)n1,"1.58 µM [falling, partial curve, poor fit]",
Cc1ccc(-c2nnc(NC(=O)c3ccco3)s2)cc1,"2.51 µM [falling, full curve]",

# Rewritten bar-delimited: 4 of the compounds above.
Compound | AC50 [1] | AC50 [2]
Cc1ccc(CC(=O)Nc2ncc([N+](=O)[O-])s2)cc1 | 11.2 µM [falling, partial curve] | 
O=C(COc1ccc(Cl)cc1)N1CCCCC1 | 6.51 µM [rising, single point] | 
CCOCc1nnc(NC(=O)CCc2ccccc2)s1 | 1.84 µM [rising, full curve, poor fit] | 
O=C(Cn1cc(SCc2ccccc2Cl)c2ccccc21)N1CCOCC1 | 29.1 µM [falling, single point] | 

# Continuation.

Compound,AC50 [1],AC50 [2]
Nc1nc(CCl)nc(N(c2ccccc2)c2ccccc2)n1,"7.94 µM [falling, partial curve, poor fit]",
O=C(c1ccc2c(c1)OCO2)[C@@H]1[C@@H]2C(=O)N(C3CCCCC3)C(=O)[C@@H]2C2c3ccccc3C=CN21 (stereo not given in full),"7.94 µM [falling, partial curve]",
Fc1ccccc1N1CCN(c2nc3ccccc3n3nnnc23)CC1,"7.31 µM [falling, partial curve, poor fit]",
Cc1c(C(=O)N(CC(C)C)c2c(N)n(Cc3ccccc3)c(=O)[nH]c2=O)sc2nc3n(c(=O)c12)CCC3,"0.92 µM [rising, full curve, poor fit]",
O=C(/C=C/c1ccc(Cl)c(Cl)c1)N1CCc2ccccc21,"18.4 µM [rising, single point]",
O=C(Cc1ccccc1)NCC(=O)OCC(=O)c1ccc([N+](=O)[O-])cc1,"18.4 µM [falling, partial curve, poor fit]",
CN1CCN(C(=O)c2ccc(COc3ccc(Cl)cc3Cl)cc2)CC1,"32.6 µM [falling, single point]",
COc1ccc(-c2csc(N(CC3CCCO3)C(=O)c3ccco3)n2)cc1 (stereo not given),"16.4 µM [falling, single point]",
CC(C)Oc1ccc(/C=N/NC(N)=S)cc1,"29.1 µM [rising, single point]","32.6 µM [falling, partial curve, poor fit]"
CCOC(=O)CSc1nnc(-c2cccc(Cl)c2)n1CC,"2.82 µM [rising, full curve, poor fit]",
CCC(=O)Nc1cc(-c2nn3c(C)nnc3s2)ccc1C,"11.2 µM [rising, partial curve]",
C/C(=N\NC(=S)NC1CCCCC1)c1ccc(C)o1,"2.51 µM [rising, partial curve, poor fit]","12.6 µM [falling, partial curve]"
CCNC(=O)c1c(O)c2cccc3c2n(c1=O)CC3,"32.6 µM [rising, single point]",
COc1ccc(C(=O)NN/C(C)=C/C(=O)C(F)(F)C(F)(F)C(F)(F)F)cc1,"2.06 µM [falling, full curve]",
CN1C(=O)c2ccccc2C(C(=O)O)C1c1cccc(Cl)c1 (stereo not given),"2.06 µM [rising, partial curve, poor fit]",
COc1cccc(C(=O)NC(=S)Nc2ccc(N(C)C)cc2)c1,"0.164 µM [falling, full curve]",
COCc1cc(/C=N\NC(=O)COc2ccccc2)ccc1OC,"1.46 µM [rising, full curve, poor fit]",
O=C(Nc1nc2cc3c(cc2s1)OCCO3)c1ccncc1,"7.94 µM [falling, partial curve, poor fit]",
COc1ccccc1-c1cc2nc(C)c(CCC(=O)NCc3ccco3)c(C)n2n1,"10.3 µM [falling, partial curve, poor fit]",
COc1ccc(-c2cc3ccccc3s2)cc1[C@H]1[C@H]2C=CC[C@@H](C)[C@@H]2C(=O)N1Cc1ccccc1,"7.94 µM [falling, partial curve, poor fit]",
Cc1ccc(C(=O)N/N=C/c2cn(Cc3ccccc3)c3ccccc23)cn1,"4.47 µM [falling, partial curve, poor fit]",
